No constants are given. Whether binding was seen depends on the method and setting. Some entries that bind do so weakly or less than the wild type.
Assays:
[1] = target: LAP (LAP-TGFβ1) expressed endogenously on human cells (human) (UniProt P01137); experiment: summary table; binding to GARP+ human cells
[2] = target: T1, human LAP-TGFβ1 on transfected cells (human, UniProt P01137 30-390); experiment: summary table; binding to human TGFβ1 on transfected cells
[3] = target: LAP (LAP-TGFβ1) expressed endogenously on human cells (human) (UniProt P01137); experiment: flow cytometry, activated human Tregs, biotinylated mAb
[4] = target: LAP (LAP-TGFβ1) expressed endogenously on human cells (human) (UniProt P01137); experiment: quantitative flow cytometry (antibody binding capacity), human platelets
[5] = target: LAP (LAP-TGFβ1) expressed endogenously on human cells (human) (UniProt P01137); experiment: flow cytometry, U937 cells, Alexa 647 conjugated mAb
[6] = target: LAP (LAP-TGFβ1) expressed endogenously on human cells (human) (UniProt P01137); experiment: immunohistochemistry, frozen human hepatocellular carcinoma sections, 10 µg/ml
[7] = target: murine TGFβ1 in absence of anchor protein (ForteBio) (murine) (UniProt P04202); experiment: summary table; ForteBio, murine TGFβ1 in absence of anchor protein
[8] = target: LAP (LAP-TGFβ1) expressed endogenously on human cells (human) (UniProt P01137); experiment: flow cytometry, activated human PBMC, CD4+ T cells
[9] = target: LAP (LAP-TGFβ1) expressed endogenously on human cells (human) (UniProt P01137); experiment: summary table; binding to GARPneg human cells
[10] = target: recombinant human LAP-TGFβ1-Fc fusion protein (human) (UniProt P01137); experiment: summary table; ForteBio, human TGFβ1 in absence of anchor protein
[11] = target: LAP (LAP-TGFβ1) expressed endogenously on human cells (human) (UniProt P01137); experiment: flow cytometry, CD61+ platelets in diluted human whole blood, conjugated mAb
[12] = target: LAP (LAP-TGFβ1) expressed endogenously on human cells (human) (UniProt P01137); experiment: flow cytometry, activated human PBMC
[13] = target: murine LAP-TGFβ1 on transfected cells (murine, UniProt P04202 30-390); experiment: flow cytometry, HT1080 cells overexpressing murine LAP-TGFβ1
[14] = target: T1, human LAP-TGFβ1 on transfected cells; experiment: flow cytometry, HT1080 cells overexpressing human LAP-TGFβ1
[15] = target: human LAP-TGFβ1 co-expressed with LRRC33 on P3U1 cells (human) (UniProt Q86YC3); experiment: flow cytometry, P3U1 cells overexpressing LAP-TGFβ1 and LRRC33
[16] = target: T1, human LAP-TGFβ1 on transfected cells; experiment: flow cytometry, P3U1-hTGFβ1 cells
[17] = target: human LAP-TGFβ1 with K27C and Y75C mutations on HT1080 cells (human) (UniProt P01137); experiment: flow cytometry, HT1080 cells overexpressing the variant
[18] = target: T1, human LAP-TGFβ1 on transfected cells; experiment: flow cytometry, HT1080 cells, variant experiment (FIGS. 5, 6)

The chains behind the UniProt entries cited, without tags or fusion partners. Where a name states a change or a piece, a line headed by the entry shows the natural chain unless it says otherwise.
UniProt P01137: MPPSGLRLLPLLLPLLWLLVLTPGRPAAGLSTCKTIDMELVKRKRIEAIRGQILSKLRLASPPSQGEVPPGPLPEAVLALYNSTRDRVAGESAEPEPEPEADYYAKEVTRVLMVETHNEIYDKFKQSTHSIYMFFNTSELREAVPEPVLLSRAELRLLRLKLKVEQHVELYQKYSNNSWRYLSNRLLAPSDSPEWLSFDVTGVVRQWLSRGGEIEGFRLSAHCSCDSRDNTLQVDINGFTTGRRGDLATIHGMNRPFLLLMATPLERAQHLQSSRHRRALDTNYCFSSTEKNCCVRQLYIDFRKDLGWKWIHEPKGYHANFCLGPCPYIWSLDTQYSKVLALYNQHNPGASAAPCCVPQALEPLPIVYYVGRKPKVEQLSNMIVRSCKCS
UniProt P04202: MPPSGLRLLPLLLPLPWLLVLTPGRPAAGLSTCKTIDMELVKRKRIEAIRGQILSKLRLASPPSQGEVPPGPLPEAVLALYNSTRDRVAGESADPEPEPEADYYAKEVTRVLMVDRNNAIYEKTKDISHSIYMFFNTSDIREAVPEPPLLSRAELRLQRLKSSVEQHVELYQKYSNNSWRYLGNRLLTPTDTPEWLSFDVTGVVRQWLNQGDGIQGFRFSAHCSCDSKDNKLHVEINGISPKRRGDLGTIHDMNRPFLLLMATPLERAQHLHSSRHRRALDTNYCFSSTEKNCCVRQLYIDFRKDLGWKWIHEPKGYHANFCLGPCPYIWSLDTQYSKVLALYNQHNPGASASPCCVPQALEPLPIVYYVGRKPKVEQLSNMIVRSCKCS
UniProt Q86YC3: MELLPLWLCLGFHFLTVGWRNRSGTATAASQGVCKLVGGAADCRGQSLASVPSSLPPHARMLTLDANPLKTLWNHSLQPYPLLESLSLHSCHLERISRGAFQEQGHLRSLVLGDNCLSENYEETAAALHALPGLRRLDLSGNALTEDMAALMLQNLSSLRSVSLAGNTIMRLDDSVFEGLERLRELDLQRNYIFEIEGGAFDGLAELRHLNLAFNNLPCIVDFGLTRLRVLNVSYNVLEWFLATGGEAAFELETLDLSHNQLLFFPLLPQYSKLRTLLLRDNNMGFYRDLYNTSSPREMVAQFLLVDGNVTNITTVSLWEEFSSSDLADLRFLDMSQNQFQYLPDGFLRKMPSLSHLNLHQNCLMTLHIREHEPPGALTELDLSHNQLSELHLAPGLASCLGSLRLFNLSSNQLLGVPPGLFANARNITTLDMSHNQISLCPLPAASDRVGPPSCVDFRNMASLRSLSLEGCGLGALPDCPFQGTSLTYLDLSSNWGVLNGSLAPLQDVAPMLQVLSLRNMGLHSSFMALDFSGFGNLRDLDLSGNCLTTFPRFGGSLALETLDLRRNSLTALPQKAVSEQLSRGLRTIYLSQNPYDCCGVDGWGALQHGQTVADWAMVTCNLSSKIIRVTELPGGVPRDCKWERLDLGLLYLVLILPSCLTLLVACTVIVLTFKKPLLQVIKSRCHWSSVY

Measured: binding

B1: 7H4 (antibody, V domains shown)
VH: DVQLQESGPGLVKPSQSLSLTCSVTGYSITSGYYWNWIRQFPGNKLEWMGYISYDGTNNYNPSLKNRISITRDTSKHQFFLKLNSVTTEDTATYYCARSFYNNYFDFWGQGTTLTVSS
VL: DIQMTQSPSSLSASLGGKVTITCKASQDIDKYIAWYQHKPGKGPRLLIHYTSTLQPGIPSRFSGSGSGRDYSFNISNLEPEDIATYYCLQYDNLRTFGGGTKLEIK
binds: [1] | [2] | [3]

B2: 28G11 (antibody, V domains shown)
VH: EVKLVESGGGLVQPGGSLSLSCAASGFTFTDYYMSWVRQPPGKALEWLGFIRNKPNGYTTEYSASVKGRFTISRDNSQSILYLQMNVLRAEDSATYYCARYTGGGYFDYWGQGTTLTVSS
VL: DIQMTQTTSSLSASLGDRLTISCRASQDISNYLNWYQQKPDGTVKLLIYYTSRLHSGVPSRFSGSGSGTDYSLTISNLEQADIATYFCQQGDTLPWTFGGGTKLEIK
notes: Mouse hybridoma antibody; Used biotinylated or dye-conjugated in cell assays; also called 28G11_(hyb); 28G11_hyb
binds: [4] | [5] | [1] | [6] | [2] | [7] | [8] | [9] | [3] | [10] | [11] | [12]

B3: 28G11_hIgG1 (antibody, V domains shown)
VH: EVKLVESGGGLVQPGGSLSLSCAASGFTFTDYYMSWVRQPPGKALEWLGFIRNKPNGYTTEYSASVKGRFTISRDNSQSILYLQMNVLRAEDSATYYCARYTGGGYFDYWGQGTTLTVSS
VL: DIQMTQTTSSLSASLGDRLTISCRASQDISNYLNWYQQKPDGTVKLLIYYTSRLHSGVPSRFSGSGSGTDYSLTISNLEQADIATYFCQQGDTLPWTFGGGTKLEIK
notes: 28G11 in human IgG1 format, by its name
binds: [13] | [14] | [15] | [16] | [17] | [18]
